Drawing on doi:10.1101/2024.06.02.596995, this text covers binding for one molecule.

The target of the assay is T1, MOV10L1-Flag (mouse) (UniProt Q99MV5).
T1 sequence: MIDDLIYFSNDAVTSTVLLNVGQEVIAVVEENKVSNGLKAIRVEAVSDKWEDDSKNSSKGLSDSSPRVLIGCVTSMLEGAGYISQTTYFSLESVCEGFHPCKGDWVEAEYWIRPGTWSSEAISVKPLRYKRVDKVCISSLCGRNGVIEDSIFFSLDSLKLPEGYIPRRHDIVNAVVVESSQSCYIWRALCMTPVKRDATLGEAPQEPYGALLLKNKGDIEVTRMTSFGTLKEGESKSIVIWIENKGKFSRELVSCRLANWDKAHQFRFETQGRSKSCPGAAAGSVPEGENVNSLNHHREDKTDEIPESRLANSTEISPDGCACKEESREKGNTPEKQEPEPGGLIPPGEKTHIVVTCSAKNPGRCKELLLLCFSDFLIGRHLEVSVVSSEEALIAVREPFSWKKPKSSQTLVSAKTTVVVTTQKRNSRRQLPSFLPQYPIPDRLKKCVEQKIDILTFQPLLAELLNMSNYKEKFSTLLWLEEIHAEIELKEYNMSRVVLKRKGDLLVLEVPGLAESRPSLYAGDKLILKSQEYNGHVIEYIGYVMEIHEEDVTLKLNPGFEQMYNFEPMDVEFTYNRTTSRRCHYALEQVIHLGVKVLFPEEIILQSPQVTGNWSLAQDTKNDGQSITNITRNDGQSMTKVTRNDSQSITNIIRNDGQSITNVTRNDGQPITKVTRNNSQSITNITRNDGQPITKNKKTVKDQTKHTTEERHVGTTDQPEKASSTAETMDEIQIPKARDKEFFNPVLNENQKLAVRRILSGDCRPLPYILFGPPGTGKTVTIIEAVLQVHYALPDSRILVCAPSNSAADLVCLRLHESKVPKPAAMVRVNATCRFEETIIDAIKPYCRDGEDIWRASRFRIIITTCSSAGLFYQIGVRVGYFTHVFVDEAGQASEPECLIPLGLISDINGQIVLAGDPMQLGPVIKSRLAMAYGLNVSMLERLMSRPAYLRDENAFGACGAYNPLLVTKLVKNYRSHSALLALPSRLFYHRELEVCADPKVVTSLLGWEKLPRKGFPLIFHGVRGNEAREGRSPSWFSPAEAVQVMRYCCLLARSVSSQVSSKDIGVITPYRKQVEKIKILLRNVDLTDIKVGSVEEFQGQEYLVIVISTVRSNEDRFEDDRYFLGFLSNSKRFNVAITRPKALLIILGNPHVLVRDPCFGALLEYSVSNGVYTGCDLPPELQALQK
Put plainly: co-IP.

Results are given in words; binding and its absence hold for the method and conditions named. Binding seen in cells or lysates may run through a third protein. Some binding calls cover weakened binding; strength is not graded here. Tags and fused reporters may be left off the sequences shown.

B1: Myc-ASZ1 (protein, UniProt Q8VD46 1-475)
chain: MAAGTLRGLAVAGGGESSDSEDDGWDIGYLDRSSQKLKRSLPVEEKNETFKKALTTGDISLVKELLDSGINVDSSFRYGWTPLMYAASVANAELVRFLLDRGANASFDKDKLTILISACSARGSEEQVLKCVELLLSRNADPNTACRRLMTPIMYAARDGHTQVVALLVAHGAEVNAQDENGYTALTWAARQGHKNVILKLLELGANKMLQTKDGRTPSEIAKRNKHLEIFNFLSLTLNPLEGKLQQLTKEETICKLLATDSDKEKDHIFSPYTAFGDLEIFLHGLGLEHMTDSLKEKDITLRHLLTMKKDELTKNGIASKDQQKILAALKELEVEEINFGKLPEVTKLEISGDEFLNFLLKLNKQCGHLITAVQNIITELPVNSHKIVLEWASPRNFTSVCEELVSNVEDLNEEVCRLKELIQKMQNERENDPTHIPLVEEVSTWKTRILKRSAVTVCGFGLLLFIGKLTLQRK
Regarding B1, the binding entry is on record as “binds”.
